At least one structure is not confirmed: it was looked up by name or label, or the drawing left a doubt.
Biological target: T1, Cathepsine B (Homo sapiens, UniProt P07858)
T1 construct: purchased Calbiochem
Assay: Inhibition of Cathepsine B (fluorogenic substrate Z-arg-arg-AMC)
Type: biochemical
Conditions: substrate Z-arg-arg-AMC 20 µM, enzyme 16 ng/ml, 1 h at room temperature; read-out: IC50 µM Cathepsin B
Description: Les produits à tester (10 mM) sont dilués à 1 mM en DMSO et repartis dans des plaques 96 puits polystyrène Nunc à raison de 2 µl par puits. La colonne 12 de la plaque est réservée pour les contrôles et reçoit donc […] de DMSO (sans produits) par puits. Les plaques sont conservées à -80°C et décongelées le jour de l'expérience.
Les produits sont dilués à 50 µM par addition de 38 µl de tampon réaction : acétate de sodium 100 mM, EDTA 5 mM, DTT 1 mM pH 5,5. L'addition ainsi que tous les pipetages suivant sont réalisés par un pipeteur 96 cônes CybiWell. Après mélange des solutions, chaque produit est transféré dans 2 puits (duplicates) d'une plaque 384 puits noire Greiner à raison de 10 µl par puits. On peut donc tester 2 plaques 96 dans une plaque 384.
Une solution de substrat à 50 µM, Z-Val-arg-AMC (Calbiochem), est préparée dans le tampon réaction . Le substrat, est ensuite distribué dans tous les puits de la plaque 384 (20 µl par puits).
Une solution de Cathepsine K à 12,5 ng/ml est préparée dans le tampon réaction et distribuée dans tous les puits de la plaque 384 (20 µl par puits) exceptés les 16 puits servant de contrôles 100 % d'inhibition (colonne 23 et 24, lignes I à P) qui recevront 20 µl de tampon sans enzyme. Les contrôles […] d'inhibition sont réalisés dans les colonnes 23 et 24, lignes A à H qui ne contiennent pas de produits. […]

C[C@H](NC(=O)[C@@H]1CCCN2C(=O)CC[C@H](NC(=O)NCCc3cccs3)C(=O)N12)C(=O)C=[N+]=[N-] [Exemple 172, 9-[(9S)-[[[3-(thien-2-yl)-ethyl]amino]carbonyl]amino]-N-((2S)-4-diazo-3-oxo-2-butyl)-octahydro-6,10-dioxo-6H-(1S)-pyridazino[1,2-a][1,2]diazepine-1-carboxamide]
IC50: 20 µM

Source: patent EP1246824B1, “CARBOXAMIDE DIAZEPIN DERIVATIVES, PREPARATION METHOD, USE AS MEDICINES, PHARMACEUTICAL COMPOSITIONS AND USE THEREOF” (Aventis Pharma S.A., priority 1999, dated 2001)
